Patent US20130260455A1
No constants are given. Whether binding was seen depends on the method and setting. Some entries that bind do so weakly or less than the wild type.

The chains behind the UniProt entries cited, without tags or fusion partners. Where a name states a change or a piece, a line headed by the entry shows the natural chain unless it says otherwise. Residues count along the entry.
UniProt Q04721: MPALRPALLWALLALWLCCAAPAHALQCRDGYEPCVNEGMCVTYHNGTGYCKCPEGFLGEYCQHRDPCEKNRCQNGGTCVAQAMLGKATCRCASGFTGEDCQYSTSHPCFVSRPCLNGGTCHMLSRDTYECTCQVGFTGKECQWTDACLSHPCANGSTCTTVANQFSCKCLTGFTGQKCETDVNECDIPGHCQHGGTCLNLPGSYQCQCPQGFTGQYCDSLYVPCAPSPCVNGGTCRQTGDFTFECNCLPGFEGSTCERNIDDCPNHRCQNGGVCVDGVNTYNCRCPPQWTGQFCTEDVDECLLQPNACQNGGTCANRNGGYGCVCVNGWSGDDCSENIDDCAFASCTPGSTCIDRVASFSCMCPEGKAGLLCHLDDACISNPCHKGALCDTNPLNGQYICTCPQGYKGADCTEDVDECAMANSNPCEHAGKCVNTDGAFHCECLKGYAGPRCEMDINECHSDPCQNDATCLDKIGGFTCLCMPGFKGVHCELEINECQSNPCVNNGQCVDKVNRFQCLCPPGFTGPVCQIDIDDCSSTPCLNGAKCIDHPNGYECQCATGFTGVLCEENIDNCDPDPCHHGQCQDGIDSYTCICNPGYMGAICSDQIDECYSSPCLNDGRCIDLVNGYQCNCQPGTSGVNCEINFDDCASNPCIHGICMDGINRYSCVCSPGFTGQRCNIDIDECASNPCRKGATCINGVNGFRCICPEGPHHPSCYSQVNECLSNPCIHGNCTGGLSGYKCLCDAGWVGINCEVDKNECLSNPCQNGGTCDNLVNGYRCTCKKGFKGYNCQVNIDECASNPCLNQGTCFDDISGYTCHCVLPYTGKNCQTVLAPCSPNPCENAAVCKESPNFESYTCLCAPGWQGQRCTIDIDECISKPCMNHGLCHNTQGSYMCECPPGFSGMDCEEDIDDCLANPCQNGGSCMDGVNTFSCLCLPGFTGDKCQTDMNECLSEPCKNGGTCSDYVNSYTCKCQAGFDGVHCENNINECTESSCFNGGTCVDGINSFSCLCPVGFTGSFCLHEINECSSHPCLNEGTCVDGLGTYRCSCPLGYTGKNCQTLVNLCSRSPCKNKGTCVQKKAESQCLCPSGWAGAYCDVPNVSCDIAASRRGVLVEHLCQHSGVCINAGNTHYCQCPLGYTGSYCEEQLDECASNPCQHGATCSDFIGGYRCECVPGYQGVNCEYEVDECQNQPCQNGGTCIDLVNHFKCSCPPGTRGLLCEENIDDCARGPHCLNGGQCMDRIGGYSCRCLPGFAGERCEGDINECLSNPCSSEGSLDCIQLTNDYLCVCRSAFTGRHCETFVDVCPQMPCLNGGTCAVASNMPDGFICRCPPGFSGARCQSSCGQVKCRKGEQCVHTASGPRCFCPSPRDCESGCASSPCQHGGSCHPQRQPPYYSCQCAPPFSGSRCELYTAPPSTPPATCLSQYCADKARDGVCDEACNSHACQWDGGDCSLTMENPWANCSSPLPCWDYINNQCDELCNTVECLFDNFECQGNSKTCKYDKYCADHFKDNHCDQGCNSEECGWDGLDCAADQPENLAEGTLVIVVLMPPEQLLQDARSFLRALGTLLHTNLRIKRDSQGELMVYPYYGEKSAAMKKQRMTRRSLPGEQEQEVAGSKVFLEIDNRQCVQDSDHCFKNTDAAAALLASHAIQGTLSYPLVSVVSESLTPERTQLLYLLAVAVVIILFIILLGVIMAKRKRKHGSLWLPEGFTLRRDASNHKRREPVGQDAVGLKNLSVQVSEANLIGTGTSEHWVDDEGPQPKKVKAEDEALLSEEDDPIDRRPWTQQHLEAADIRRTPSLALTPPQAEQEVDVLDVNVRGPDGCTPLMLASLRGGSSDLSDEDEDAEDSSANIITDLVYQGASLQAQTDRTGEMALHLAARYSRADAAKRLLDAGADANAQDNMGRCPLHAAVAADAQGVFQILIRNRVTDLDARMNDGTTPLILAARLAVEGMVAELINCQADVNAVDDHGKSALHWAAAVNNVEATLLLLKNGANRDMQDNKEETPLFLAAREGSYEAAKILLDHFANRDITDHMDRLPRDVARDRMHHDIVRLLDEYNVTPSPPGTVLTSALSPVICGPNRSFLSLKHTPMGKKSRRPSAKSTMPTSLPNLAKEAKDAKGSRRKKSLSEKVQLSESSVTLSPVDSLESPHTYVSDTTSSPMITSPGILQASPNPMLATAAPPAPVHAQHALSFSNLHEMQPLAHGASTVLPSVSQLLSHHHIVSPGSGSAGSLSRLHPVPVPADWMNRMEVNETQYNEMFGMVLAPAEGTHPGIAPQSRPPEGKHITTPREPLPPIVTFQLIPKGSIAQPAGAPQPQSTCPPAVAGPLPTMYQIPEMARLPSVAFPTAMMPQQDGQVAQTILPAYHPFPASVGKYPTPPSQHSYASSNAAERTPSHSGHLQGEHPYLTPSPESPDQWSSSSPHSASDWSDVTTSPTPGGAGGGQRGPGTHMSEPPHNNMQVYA
UniProt P78504, residues 34-1067: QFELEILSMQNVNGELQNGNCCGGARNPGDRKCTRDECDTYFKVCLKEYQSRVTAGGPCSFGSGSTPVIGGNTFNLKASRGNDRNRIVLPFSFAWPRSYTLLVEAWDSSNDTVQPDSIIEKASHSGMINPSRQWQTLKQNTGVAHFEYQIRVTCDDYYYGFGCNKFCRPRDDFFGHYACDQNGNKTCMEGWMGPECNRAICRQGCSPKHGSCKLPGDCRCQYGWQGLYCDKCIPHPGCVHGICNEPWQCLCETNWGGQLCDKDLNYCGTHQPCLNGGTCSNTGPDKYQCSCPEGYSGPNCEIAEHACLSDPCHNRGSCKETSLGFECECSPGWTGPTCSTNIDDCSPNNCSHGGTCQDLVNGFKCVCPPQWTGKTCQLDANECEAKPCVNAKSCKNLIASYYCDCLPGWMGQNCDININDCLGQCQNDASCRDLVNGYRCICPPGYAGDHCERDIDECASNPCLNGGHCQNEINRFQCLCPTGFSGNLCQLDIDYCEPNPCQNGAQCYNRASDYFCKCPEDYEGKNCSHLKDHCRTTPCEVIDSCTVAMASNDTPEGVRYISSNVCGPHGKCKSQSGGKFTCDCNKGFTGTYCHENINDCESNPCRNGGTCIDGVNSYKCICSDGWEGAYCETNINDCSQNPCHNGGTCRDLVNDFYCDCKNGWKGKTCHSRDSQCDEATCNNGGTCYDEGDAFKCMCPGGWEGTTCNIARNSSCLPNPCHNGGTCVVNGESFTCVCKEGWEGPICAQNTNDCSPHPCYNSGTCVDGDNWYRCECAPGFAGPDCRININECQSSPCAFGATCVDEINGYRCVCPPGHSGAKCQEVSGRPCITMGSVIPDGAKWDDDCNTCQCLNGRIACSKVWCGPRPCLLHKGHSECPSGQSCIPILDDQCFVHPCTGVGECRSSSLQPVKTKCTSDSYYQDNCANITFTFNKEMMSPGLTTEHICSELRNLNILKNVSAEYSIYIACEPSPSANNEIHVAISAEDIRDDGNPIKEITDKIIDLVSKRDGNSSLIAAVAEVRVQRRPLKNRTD

Target: human Notch2, full length, on transfected cells (human) (UniProt Q04721)
Assay: FACS: hJAG1-rb Fc preclustered with PE donkey anti-rabbit on hNotch2 stably transfected 293 cells

binding: binds
Substance: hJAG1-rb Fc (from UniProt P78504 34-1067) (Fc fusion)
